Results reported in PubChem BioAssay AID493014 (National Center for Advancing Translational Sciences (NCATS), 2011).
The other results are listed elsewhere or left out. Further columns of the screen follow, without active or inactive calls. Most of these compounds were active or inconclusive in the main read-out, so they are no random draw. Words in brackets tell the shape of the fitted curve; partial curves, single points and poor fits give uncertain potencies.

Experiment: qHTS Assay to Find Inhibitors of Chronic Active B-Cell Receptor Signaling
Conditions: ABC-DLBCL IkBa-CBG/CBR reporter, luminescence ratio (green luciferase fused to IkBa over red control in TMD8 lymphoma cells), 4 h
Outline: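 Doxycycline induced both beetle luciferases in TMD8 lymphoma cells; IKK-driven degradation limits the IkappaBalpha-fused green signal, while red luminescence normalises for cell number and nonspecific effects. Compounds tested up to 46 uM, 4 hrs.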

[1] = measured here: CBR red luminescence, cell number
[2] = measured here: IkBa-CBG green luminescence

Row | SMILES | AC50 [1] | AC50 [2]
1 | c1ccc(-c2csc(-c3ccncc3)n2)cc1 | 8.91 µM [rising, partial curve] | 
2 | COc1ccc2c(c1)c1nc3ccccc3nc1n2CCn1c(=O)oc2ccccc21 | 25.9 µM [rising, single point] | 
3 | COc1ccc(-c2[nH]ncc2CN(CC2CCC(=O)N2)C(C)C)cc1F (centres undefined) | 3.55 µM [falling, single point] | 
4 | CCCS(=O)(=O)N1CCN(C2Cc3ccccc3C2)CC1 | 35.5 µM [rising, partial curve, poor fit] | 
5 | CC(C)(C)c1ccc(S(=O)(=O)N2CCN(c3ncccn3)CC2)cc1 | 0.1 µM [rising, full curve, poor fit] | 
6 | O=c1[nH]c(CS(=O)(=O)c2ccccc2)nc2ccccc12 | 18.4 µM [falling, partial curve] | 
7 | CN1CCc2cccc3c2[C@@H]1Cc1ccc(O)c(O)c1-3 |  | 1.84 µM [falling, partial curve, poor fit]
8 | CCN1CCC(CNCc2cn(-c3ccc(OC)cc3)nc2-c2ccccc2Cl)C1 (centres undefined) | 25.1 µM [falling, single point] | 
9 | O=[N+]([O-])c1ccc(O)c(C=Nc2ccc3c(c2)OCO3)c1 | 8.91 µM [falling, partial curve, poor fit] | 
10 | CC(C)C[C@H](CO)Nc1nc(N(C)c2cccc(Cl)c2)c2ncn(C(C)C)c2n1 | 0.562 µM [falling, full curve, poor fit] | 
11 | Cc1c(C(=O)O)oc2ccc(S(=O)(=O)N3CCC(C)CC3)cc12 | 14.6 µM [falling, partial curve, poor fit] | 
12 | O=C(Nc1ccc(N2CCOCC2)c(Cl)c1)c1ccc(Br)o1 | 29.1 µM [falling, single point] | 
13 | Cc1c(C#N)c(O)[nH]c(=O)c1N=Nc1ccc(Br)cc1C(=O)O | 17.8 µM [falling, single point] | 
14 | COc1ccc(C(C)C)cc1S(=O)(=O)N1CCC(C(=O)NCC2CCCO2)CC1 (centres undefined) | 0.501 µM [rising, full curve] | 
15 | COC(=O)CNC(=O)COC(=O)/C=C/c1ccc2ccccc2n1 | 20 µM [falling, single point] | 
16 | CN1CCN(C(=O)/C(=C/c2ccc(F)cc2)NC(=O)c2ccccc2)CC1 | 0.1 µM [rising, full curve, poor fit] | 
17 | O=C(O)c1ccccc1CSc1nnnn1-c1ccccc1 | 35.5 µM [falling, single point] | 
18 | CN(CC(=O)Nc1ccccc1Cl)C(=O)COC(=O)c1nc(Cl)c(Cl)c(Cl)c1Cl | 7.94 µM [falling, partial curve, poor fit] | 
19 | C/C(=N\NS(C)(=O)=O)c1ccccc1 | 7.31 µM [falling, partial curve, poor fit] | 
20 | Cc1cc(C)cc(N(CC(=O)NCc2ccc(F)cc2)C(=O)c2snc(C(N)=O)c2N)c1 | 15.8 µM [rising, partial curve, poor fit] | 
21 | O=C1[C@H](Oc2ccccc2)[C@@H](c2ccccc2)N1c1ccncc1 | 18.4 µM [falling, partial curve, poor fit] | 

Row | SMILES | AC50 [1] | AC50 [2]
22 | Cc1ccc(-c2nc(NCCCO)c3ccccc3n2)cc1 |  | 12.6 µM [rising, partial curve, poor fit]
23 | CCOc1ccccc1NC(=O)CSc1nc(=O)n(Cc2ccncc2)c2c1CCC2 | 6.51 µM [falling, partial curve] | 
24 | COc1ccc(C(=O)Nc2ccc(NC(=O)c3ccccc3)cc2)cc1S(=O)(=O)N1CCOCC1 | 17.8 µM [rising, partial curve, poor fit] | 
25 | Cc1occc1-c1nnc(SCC(=O)c2c(N)n(Cc3ccccc3)c(=O)n(C)c2=O)n1C | 12.6 µM [rising, single point] | 
26 | CCOC(=O)Cc1csc(NC(=O)COc2ccc3c(c2)CCC3)n1 | 35.5 µM [falling, single point] | 
27 | O=C(CCCc1c[nH]c2ccccc12)Nc1ncccc1O | 1.26 µM [falling, full curve, poor fit] | 
28 | Cc1cc2nc(-c3cccc(NC(=O)c4ccc(Br)o4)c3C)oc2cc1C | 2.51 µM [falling, full curve] | 
29 | CCc1cc(C(c2ccncc2)N2CCN(C)CC2)c(NC(=O)c2ccccc2)s1 (centres undefined) | 25.9 µM [falling, single point] | 
30 | Cc1csc2c(N3CCN(C(=S)Nc4ccc(C(F)(F)F)cc4)CC3)ncnc12 | 20 µM [falling, partial curve, poor fit] | 
31 | CC(C)OCCCNc1nc(-c2ccccc2)nc2ccccc12 | 35.5 µM [falling, single point] | 
32 | COc1cc(S(=O)(=O)NCc2cccnc2)c(OC)cc1Br | 6.31 µM [falling, single point] | 
33 | O=C(NCC1CCCO1)c1ccc(COc2ccccc2)o1 (centres undefined) | 23.1 µM [rising, single point] | 
34 | COc1ccc(-c2cc(C(=O)N3CCOCC3)no2)cc1 | 8.91 µM [falling, partial curve] | 
35 | Cc1ccc(C(=O)O/N=C(\N)c2ccccn2)cc1C | 0.794 µM [falling, full curve] | 
36 | Nc1cccc(C(=O)NCCNC(=O)c2cccc(N)c2)c1 | 5.01 µM [rising, partial curve, poor fit] | 
37 | COc1ccc(-c2[nH]c(-c3cccc(OC)c3)nc2SCC(=O)NCc2ccco2)cc1 | 20.6 µM [falling, single point] | 
38 | COC(=O)c1ccc(NC(=O)c2cccc(NC(=O)c3ccco3)c2)cc1 | 11.2 µM [falling, single point] | 
39 | Cc1ccc(S(=O)(=O)N2CCCCC2CCNC(=O)C(=O)NCc2ccccc2C)cc1 (centres undefined) | 5.8 µM [falling, partial curve] | 
40 | c1ccc(Nc2c(-c3ccco3)nc3ccccn23)cc1 | 7.31 µM [falling, partial curve, poor fit] | 
41 | Cn1ccnc1SCC(=O)Nc1nc2ccccc2s1 | 12.6 µM [falling, partial curve] | 
42 | Cc1ccccc1C(=O)N1CCN(c2ccc(NC(=O)Cc3ccccc3)cc2)CC1 | 7.94 µM [falling, partial curve, poor fit] | 

Row | SMILES | AC50 [1] | AC50 [2]
43 | Cc1[nH]c2ccccc2c1C(=O)COC(=O)c1ccc([N+](=O)[O-])s1 | 2.24 µM [rising, partial curve, poor fit] | 
44 | CCOc1cc(/C=C2/NC(=O)N(CC(=O)OC)C2=O)ccc1O | 1.12 µM [falling, full curve] | 
45 | CCC1(C)Cc2c(sc3nnn(CC(=O)Nc4ccccc4)c(=O)c23)CO1 (centres undefined) | 6.31 µM [rising, single point] | 
46 | N#Cc1ncc(-c2ccc3c(c2)OCCOCCOCCOCCOCCO3)nc1C#N | 5.8 µM [falling, full curve] | 
47 | CCOc1ccc(CNC(=O)c2cnc(SC)nc2CC)cc1 | 11.2 µM [rising, partial curve, poor fit] | 
48 | COc1cc2c(ccc3cc(OC)c(OC)c(O)c32)cc1O | 35.5 µM [falling, single point] | 
49 | COC(=O)/C(=C\Nc1ccc(Cl)c2ccccc12)c1ncc(C(F)(F)F)cc1Cl | 5.8 µM [rising, single point] | 
50 | CCOC(=O)CSc1[nH]c2cc(OC)ccc2c1[N+](=O)[O-] | 0.316 µM [falling, full curve, poor fit] | 
51 | CCN1C(=O)C(O)(C2COC(C)(C)CC2=O)c2cc(Br)ccc21 (centres undefined) | 8.2 µM [rising, partial curve, poor fit] | 6.51 µM [falling, partial curve]
52 | Cc1ccccc1-c1ccc(C=Nc2c(C)n(C)n(-c3ccccc3)c2=O)o1 | 35.5 µM [rising, single point] | 
53 | COC(=O)c1ccc(NC(=S)NNC(=O)c2ccccc2)cc1 | 14.1 µM [falling, partial curve] | 
54 | CNC(=S)N/N=C(\C)c1ccc(C(C)(C)C)cc1 |  | 18.4 µM [falling, partial curve, poor fit]
55 | C/C=C(/C)C(=O)OC1CC(C)(C)C[C@H]2C3=CC[C@@H]4[C@@]5(C)CCC(O[C@@H]6O[C@@H](C(=O)O)[C@@H](O)C(O[C@@H]7OC[C@H](O)[C@@H](O)[C@@H]7O[C@@H]7OC(CO)C(O)[C@@H](O)[C@@H]7O)C6O[C@@H]6OC(CO)C(O)C(O)C6O)[C@@](C)(CO)[C@@H]5CC[C@]4(C)[C@]3(C)CC(O)[C@@]12CO (some centres undefined) | 29.1 µM [rising, partial curve] | 
56 | Cc1ccc(CN=C2NC(=O)C(CC(=O)NCCc3ccccc3)S2)cc1 (centres undefined) | 35.5 µM [rising, single point] | 
57 | CC(=O)Nc1ccc(C(=O)OCc2ccccc2Cl)cc1 | 2.91 µM [rising, partial curve] | 
58 | O=C(O)Cn1c2c(c3ccccc31)CSc1ccc(Cl)cc1-2 | 3.55 µM [falling, partial curve, poor fit] | 
59 | Cn1c(SCc2ccccc2)nnc1-c1ccncc1 | 5.62 µM [rising, single point] | 
60 | CN(C)CCOc1ccc2ccccc2c1 | 2.06 µM [rising, partial curve] | 
61 | COc1ccc(C(=O)CSc2nnc(-c3ccccn3)n2Cc2ccco2)cc1 | 35.5 µM [rising, single point] | 
62 | COc1ccccc1/C=C/C(=O)NC(=S)NC(C)C | 29.1 µM [falling, single point] | 
63 | CCOC(=O)c1c(CC(C)C)csc1NC=O | 8.91 µM [rising, partial curve] | 

Quoted from the listing.
In AC50 [1], `COc1cc2c(ccc3cc(OC)c(OC)c(O)c32)cc1O` has the entry 35.5 µM [falling, single point]
In AC50 [1], `CCC1(C)Cc2c(sc3nnn(CC(=O)Nc4ccccc4)c(=O)c23)CO1` (centres undefined) has the entry 6.31 µM [rising, single point]
In AC50 [1], `COc1ccccc1/C=C/C(=O)NC(=S)NC(C)C` has the entry 29.1 µM [falling, single point]
In AC50 [1], `CCOc1ccc(CNC(=O)c2cnc(SC)nc2CC)cc1` has the entry 11.2 µM [rising, partial curve, poor fit]
